Earlier results, collected in patent publication US20040058948A1, “Mappicine analogs, methods of inhibiting retroviral reverse transcriptase and methods of treating retroviruses” (priority 2002, published 2004).
Some entries share one result that the patent states for a list of compounds.

Target: RNase H activity of HIV reverse transcriptase (Human immunodeficiency virus type 1 group M subtype B, UniProt P04585)
Conditions: published reports; cited from earlier work

CC(C)(C)c1ccc(C(=O)NN=Cc2c(O)ccc3ccccc23)cc1 [BBNH, N-4-(t-butylbenzoyl)-2-hydroxy-1-napthaldehyde hydrazone]
IC50 against HIV-1 reverse transcriptase associated RNase H activity: < 10 µM
